Patent publication US20090082270A1 (ACCELERON PHARMA, published 2009)
No constants are given. Whether binding was seen depends on the method and setting. Some entries that bind do so weakly or less than the wild type. Tags and fused reporters may be left off the sequences shown.

Key:
GDF-11 [1] = molecular target: T1, GDF-11 (UniProt O95390); assay: SPR (BiaCore CM5 chip), GDF-11 immobilized by amine coupling, Caronte injected at 200 ug/ml
T1 sequence (looked up): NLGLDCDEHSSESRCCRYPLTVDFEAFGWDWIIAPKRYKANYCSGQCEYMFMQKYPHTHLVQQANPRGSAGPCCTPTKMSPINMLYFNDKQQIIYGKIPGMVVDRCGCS

GDF-11 [2] = molecular target: T1, GDF-11; assay: SPR (BiaCore CM5 chip), GDF-11 immobilized by amine coupling, Caronte-Fc injected at 200 ug/ml

B1: Caronte-Fc (Cerberus homolog from Gallus gallus) (Fc fusion, not shown: a dimerising Fc or GST; small tags and cut ends)
chain: QPDSQQRKRRPLQHLFYLDRNLLESQSFHELVGENPVGVKETQEEPSFFIAFPQTAGESQKQGEKKMSRFILPNAELYAHQDLRTWAAPKEISPVENFSPSYYSNKRDVEPPYRKDAKKFWDHFMLRKNSASEEVVLPIKTNEMHQETCRTLPFSQSVAHESCEKVIVQNNLCFGKCSSFHVPGPDDRLYTFCSKCLPTKFSMKHLDLNCTSSVPVVKKVMIVEECNCETQKIEDPLLGSRQSDFLGNLPEHN
GDF-11 [1]
  binding: binds
GDF-11 [2]
  binding: binds
